{"source": "PubChem BioAssay AID1494158", "about": "(National Center for Advancing Translational Sciences (NCATS), 2020)", "note": "The inconclusive results got no clear call from the source; some entries with a clear call stand among them for comparison. A potency beside an inconclusive call is a rough fit, not a confirmed value. The source made the active and inactive calls. The call rests on the fitted dose curve."}
{"experiment": "VSV-G qHTS counterscreen for inhibitors of SARS-S pseudo-typed particle cell entry", "conditions": "VSV-G pseudotyped particle entry counterscreen, luciferase; series mostly up to 57.1 µM; activity, negative = inhibition: at the top concentration"}
{"compound": "COc1cccc2c1C(=O)c1c(O)c3c(c(O)c1C2=O)C[C@@](O)(C(C)=O)C[C@@H]3O[C@H]1C[C@H](N)[C@H](O)[C@H](C)O1", "Potency": "active: 1.92 µM"}
{"compound": "Cc1nn(C)c2c1C(c1ccccc1F)=NCC(=O)N2C", "Potency": "inconclusive: 21.5 µM [inhibitor, partial curve]"}
{"compound": "C[C@H]1[C@H](OC(=O)CCC(=O)O)O[C@@H]2O[C@@]3(C)CC[C@H]4[C@H](C)CC[C@@H]1[C@@]24OO3", "Potency": "inconclusive: 6.07 µM [inhibitor, full curve]"}
{"compound": "CC[C@@]1(O)C(=O)OCc2c1cc1n(c2=O)Cc2cc3c(CN(C)C)c(O)ccc3nc2-1", "Potency": "active: 0.383 µM"}
{"compound": "CCCCN=C(N)N=C(N)N", "activity, negative = inhibition": "inactive: -7.93%"}
{"compound": "CC(CN(C)C)CN1c2ccccc2CCc2ccccc21", "note": "(stereo unspecified)", "activity, negative = inhibition": "inactive: -27.2%"}
{"compound": "CN1CCC(=C2c3ccccc3C=Cc3ccccc32)CC1", "Potency": "inconclusive: 42.9 µM [inhibitor, single point]"}
{"compound": "CCc1c2c(nc3ccc(OC(=O)N4CCC(N5CCCCC5)CC4)cc13)-c1cc3c(c(=O)n1C2)COC(=O)[C@]3(O)CC", "activity, negative = inhibition": "inactive: 0%"}
{"compound": "CCCCCCNC(=O)n1cc(F)c(=O)[nH]c1=O", "Potency": "inconclusive: 42.9 µM [inhibitor, single point]"}
{"compound": "CN1CCN(CCC=C2c3ccccc3Sc3ccc(S(=O)(=O)N(C)C)cc32)CC1", "Potency": "inconclusive: 34.1 µM [inhibitor, single point]"}
{"compound": "COc1c(OCCCN2CCOCC2)ccc2c3n(c(=NC(=O)c4cnc(N)nc4)nc12)CCN3", "Potency": "inconclusive: 1.75 µM [inhibitor, full curve]"}
{"compound": "CN1CC[C@H](CN2c3ccccc3Sc3ccccc32)C1", "activity, negative = inhibition": "inactive: -2.37%"}
{"compound": "CCn1cc(C(=O)O)c(=O)c2cc(F)c(N3CCNC(C)C3)c(F)c21", "note": "(stereo unspecified)", "activity, negative = inhibition": "inactive: 0%"}
{"compound": "CCN(CC)Cc1cc(Nc2ccnc3cc(Cl)ccc23)ccc1O", "Potency": "inconclusive: 19.2 µM [inhibitor, partial curve, poor fit]"}
{"compound": "CN(C)CCOC(c1ccccc1)c1ccc(Br)cc1", "note": "(stereo unspecified)", "activity, negative = inhibition": "inactive: 0%"}
{"compound": "CC(C)(C)NCC(O)COc1ccccc1C1CCCC1", "note": "(stereo unspecified)", "Potency": "inconclusive: 17.1 µM [inhibitor, partial curve, poor fit]"}
{"compound": "O=C(O)c1cc(O)c2c(c1)[C@H]([C@H]1c3cc(C(=O)O)cc(O)c3C(=O)c3c(O[C@@H]4O[C@H](CO)[C@@H](O)[C@H](O)[C@H]4O)cccc31)c1cccc(O[C@@H]3O[C@H](CO)[C@@H](O)[C@H](O)[C@H]3O)c1C2=O", "Potency": "inconclusive: 23.5 µM [inhibitor, single point]"}
{"compound": "CN1CCCCC1CCN1c2ccccc2Sc2ccc(S(C)=O)cc21", "note": "(stereo unspecified)", "Potency": "inconclusive: 34.1 µM [inhibitor, single point]"}
{"compound": "C=CC(=O)Nc1cc(Nc2nccc(-c3cn(C)c4ccccc34)n2)c(OC)cc1N(C)CCN(C)C", "Potency": "inconclusive: 42.9 µM [inhibitor, single point]"}
{"compound": "CN1CCC(=C2c3ccccc3CCc3sccc32)CC1", "Potency": "inconclusive: 42.9 µM [inhibitor, single point]"}
{"compound": "CCSc1ccc2c(c1)N(CCCN1CCN(C)CC1)c1ccccc1S2", "Potency": "inconclusive: 42.9 µM [inhibitor, single point]"}
{"compound": "O=c1ccc2ccccc2o1", "activity, negative = inhibition": "inactive: 0%"}
{"compound": "O=C1c2c(O)ccc(O)c2C(=O)c2c(NCCNCCO)ccc(NCCNCCO)c21", "Potency": "active: 0.171 µM"}
{"compound": "C=CC1(C)CC(=O)C2(O)C(C)(O1)C(OC(C)=O)C(OC(=O)CCN(C)C)C1C(C)(C)CCC(O)C12C", "note": "(stereo unspecified)", "activity, negative = inhibition": "inactive: 0%"}
{"compound": "C=C1c2c(Cl)ccc(O)c2C(O)=C2C(=O)[C@@]3(O)C(O)=C(C(N)=O)C(=O)[C@@H](N(C)C)[C@@H]3[C@@H](O)[C@H]12", "Potency": "active: 15.2 µM"}
{"compound": "CCOc1cc2ncc(C#N)c(Nc3ccc(OCc4ccccn4)c(Cl)c3)c2cc1NC(=O)/C=C/CN(C)C", "Potency": "inconclusive: 4.94 µM [inhibitor, partial curve]"}
